Record: PubChem BioAssay AID1259425 (University of Nebraska Medical Center, 2018)
The whole screen tested about 14,000 reagents; this is a part drawn at random. Further read-outs or replicates are left out here. The record does not give: the time to read-out.

Assay: 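Find knockdowns that reproduce the gene expression pattern seen when KSR1 is lost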 (primary screen)
System: HCT116 human colon cancer cells
Knock-down reagent: siRNA pool against human genes, 50 nM siRNA
Detection: 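mRNA of six signature genes measured together by branched-DNA assay after 50 nM siRNA pool, blank removed, divided by geometric mean of two housekeeping genes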
Scale: BNIP3L mRNA: higher = more BNIP3L transcript after knockdown

The first 2 records, to show the layout:
{"target gene": "CES1P1 (GeneID 51716)", "BNIP3L mRNA, set 1": 0.0574}
{"target gene": "MSI1 (GeneID 4440)", "BNIP3L mRNA, set 1": 0.144}

Main list, repeating the preview:
{"target gene": "CES1P1 (GeneID 51716)", "BNIP3L mRNA, set 1": 0.0574}
{"target gene": "MSI1 (GeneID 4440)", "BNIP3L mRNA, set 1": 0.144}
{"target gene": "ANKRD1 (GeneID 27063)", "BNIP3L mRNA, set 1": 0.0822}
{"target gene": "TMT1A (GeneID 25840)", "BNIP3L mRNA, set 1": 0.176}
{"target gene": "OR1E2 (GeneID 8388)", "BNIP3L mRNA, set 1": 0.201}
{"target gene": "RAB1A (GeneID 5861)", "BNIP3L mRNA, set 1": 0.0571}
{"target gene": "NTHL1 (GeneID 4913)", "BNIP3L mRNA, set 1": 0.122}
{"target gene": "LST1 (GeneID 7940)", "BNIP3L mRNA, set 1": 0.216}
{"target gene": "REV1 (GeneID 51455)", "BNIP3L mRNA, set 1": 0.0974}
{"target gene": "C9 (GeneID 735)", "BNIP3L mRNA, set 1": 0.0764}
{"target gene": "CALCOCO2 (GeneID 10241)", "BNIP3L mRNA, set 1": 0.109}
{"target gene": "TUSC2 (GeneID 11334)", "BNIP3L mRNA, set 1": 0.182}
